Results from PubChem BioAssay AID330 (DTP/NCI, 2004).
The list shows only some results of the screen, not a fair sample: it is rich in T/C values a quarter to a half above the control, in often repeated tests (any T/C) and in doses without a T/C. Further doses and runs are listed elsewhere. T/C is the treated group as % of the vehicle group. Some entries give survivors of the animals treated and no T/C: the source holds a T/C of zero for them, seemingly a mark for toxic or unscored doses. Some doses without a T/C left all or most animals alive at the check, yet need not have been tolerated: the source hardly ever lists a survival T/C far under the control, and the zero likely stands for such cases as well. Counts of survivors are from the toxicity check (mostly the fifth day) where no day follows; animals may have died later. Schedules are NCI's codes, read here as Q, the interval in days (D) or hours (H), X, the number of doses. Some entries were tested several times; their values stand side by side, smallest first. Where survival is the endpoint, the PubChem record calls one and a half times the control and up active, and a quarter to a half above the control has no call in these data; cut-offs in other NCI protocols can differ.

Test system: P388 leukemia ip, CD2F1 mice, survival T/C
Assay: NCI In Vivo Anticancer Drug Screen. Data for tumor model P388 Leukemia (intraperitoneal) in CD2F1 (CDF1) mice
Conditions: T/C endpoint: median survival time, higher T/C = longer survival
[1] = dose: 200.0 mg/kg/injection, schedule: Q01DX005 (ip), vehicle: saline
[2] = dose: 25.0 mg/kg/injection, schedule: Q01DX009 (ip), vehicle: other
[3] = dose: 400.0 mg/kg/injection, schedule: Q01DX009 (ip), vehicle: other
[4] = dose: 50.0 mg/kg/injection, schedule: Q01DX009 (ip), vehicle: water
[5] = dose: 400.0 mg/kg/injection, schedule: Q01DX001 (ip), vehicle: saline with Tween-80

COc1cccc2c1C(=O)c1c(O)c3c(c(O)c1C2=O)CC(O)(/C(C)=N/NC(=O)CC(=O)N/N=C(\C)C1(O)Cc2c(O)c4c(c(O)c2C(OC2CC(N)C(O)C(C)O2)C1)C(=O)c1c(OC)cccc1C4=O)CC3OC1CC(N)C(O)C(C)O1 (centres undefined)
T/C (dose: 0.78 mg/kg/injection, schedule: Q01DX009 (ip), vehicle: water): 125 % of control
T/C (dose: 1.56 mg/kg/injection, schedule: Q01DX009 (ip), vehicle: water): 132 % of control
survivor count (dose: 12.5 mg/kg/injection, schedule: Q01DX009 (ip), vehicle: water): 0 of 6
survivor count (dose: 25.0 mg/kg/injection, schedule: Q04DX003 (ip), vehicle: water): 0 of 6
survivor count (dose: 50.0 mg/kg/injection, schedule: Q04DX003 (ip), vehicle: water): 0 of 6

Cc1cc(C(=O)O)c(C)c2c1sc1ccccc12
survivor count (dose: 240.0 mg/kg/injection, schedule: Q01DX005 (ip), vehicle: saline with Tween-80): 0 of 6

CN(C)CC(CN(C)C)C(=O)/C=C/c1ccccc1
survivor count (dose: 6.25 mg/kg/injection, schedule: Q01DX005 (ip), vehicle: saline): 4 of 6 and 5 of 6
survivor count (dose: 12.5 mg/kg/injection, schedule: Q01DX005 (ip), vehicle: saline): 0 of 6
survivor count (dose: 25.0 mg/kg/injection, schedule: Q01DX005 (ip), vehicle: saline): 0 of 6
survivor count (dose: 50.0 mg/kg/injection, schedule: Q01DX005 (ip), vehicle: saline): 0 of 6
survivor count (dose: 100.0 mg/kg/injection, schedule: Q01DX005 (ip), vehicle: saline): 0 of 6
survivor count [1]: 0 of 6

BrC1=CC(Br)=C2N=C(N3CCCC3)N=C3N=C(N4CCCC4)N=C1N32
survivor count (dose: 30.0 mg/kg/injection, schedule: Q01DX005 (ip), vehicle: Klucel + Tween-80): 6 of 6
survivor count (dose: 60.0 mg/kg/injection, schedule: Q01DX005 (ip), vehicle: Klucel + Tween-80): 6 of 6
survivor count (dose: 120.0 mg/kg/injection, schedule: Q01DX005 (ip), vehicle: Klucel + Tween-80): 5 of 6
survivor count (dose: 240.0 mg/kg/injection, schedule: Q01DX005 (ip), vehicle: Klucel + Tween-80): 2 of 6

C[n+]1c(C[n+]2ccccc2)ccc2ccccc21
survivor count [1]: 0 of 6

CCN(CC)CC.[CH-]1CCCCC1.[CH-]1CCCCC1.[CH-]1CCCCC1.[Cl-].[Cl-].[Sn+4]
survivor count (dose: 12.5 mg/kg/injection, schedule: Q01DX005 (ip), vehicle: saline with Tween-80): 3 of 6
survivor count (dose: 50.0 mg/kg/injection, schedule: Q01DX005 (ip), vehicle: saline with Tween-80): 0 of 6
survivor count (dose: 100.0 mg/kg/injection, schedule: Q01DX005 (ip), vehicle: saline with Tween-80): 0 of 6
survivor count (dose: 200.0 mg/kg/injection, schedule: Q01DX005 (ip), vehicle: saline with Tween-80): 0 of 6

CC(CN(C)C)C(/C=C/c1ccccc1)=N\Nc1ccccc1 (centres undefined)
survivor count (dose: 120.0 mg/kg/injection, schedule: Q01DX005 (ip), vehicle: saline): 0 of 6
survivor count (dose: 240.0 mg/kg/injection, schedule: Q01DX005 (ip), vehicle: saline): 0 of 6

COC1C(CO)OC(n2c3c(Cl)cccc3c3c4c(c5c6cccc(Cl)c6[nH]c5c32)C(=O)NC4=O)C(O)C1O (centres undefined)
T/C (dose: 12.5 mg/kg/injection, schedule: Q01DX005 (ip), vehicle: distilled water + Tween-80): 135 % of control
T/C (dose: 25.0 mg/kg/injection, schedule: Q01DX005 (ip), vehicle: distilled water + Tween-80): 141 % of control

C1=C(C2CCCC3[C@@H]4C[C@@H](CN23)C2CCCCN2C4)CCC2[C@H]3C[C@H](CN12)C1CCCCN1C3 (some centres undefined)
survivor count (dose: 60.0 mg/kg/injection, schedule: Q01DX005 (ip), vehicle: Klucel (hydroxypropylcellulose) (HPC)): 0 of 6 and 1 of 6
survivor count (dose: 120.0 mg/kg/injection, schedule: Q01DX005 (ip), vehicle: Klucel (hydroxypropylcellulose) (HPC)): 0 of 6
survivor count (dose: 240.0 mg/kg/injection, schedule: Q01DX005 (ip), vehicle: Klucel (hydroxypropylcellulose) (HPC)): 0 of 6

O=C1NC(=O)C2(CCCC2)c2ccncc21
survivor count (dose: 25.0 mg/kg/injection, schedule: Q04DX002 (ip), vehicle: saline with Tween-80): 2 of 6

COc1cc(CC2NCCc3cc(O)c(O)cc32)cc(OC)c1OC (centres undefined)
survivor count (dose: 25.0 mg/kg/injection, schedule: Q01DX009 (ip), vehicle: Klucel (hydroxypropylcellulose) (HPC)): 0 of 6
survivor count (dose: 50.0 mg/kg/injection, schedule: Q01DX009 (ip), vehicle: Klucel (hydroxypropylcellulose) (HPC)): 0 of 6
survivor count (dose: 100.0 mg/kg/injection, schedule: Q01DX009 (ip), vehicle: Klucel (hydroxypropylcellulose) (HPC)): 0 of 6

CCN(CC)CCn1[nH]c2c3ccc(=O)cc3sc3c(NCCN)ccc1c32
survivor count (dose: 25.0 mg/kg/injection, schedule: Q01DX005 (ip), vehicle: water): 1 of 6 and 3 of 6

COc1ccc(C(=O)c2ncccc2C)cc1OC
survivor count [2]: 6 of 6
survivor count [3]: 3 of 6

O=C(O)/C=N/NS(=O)(=O)c1cccs1
T/C [2]: 127 % of control
T/C (dose: 25.0 mg/kg/injection, schedule: Q01DX009 (ip), vehicle: water): 130 % of control
T/C (dose: 50.0 mg/kg/injection, schedule: Q01DX009 (ip), vehicle: other): 137 % of control
T/C [4]: 130 % of control
T/C (dose: 100.0 mg/kg/injection, schedule: Q01DX009 (ip), vehicle: other): 149 % of control
T/C (dose: 100.0 mg/kg/injection, schedule: Q01DX009 (ip), vehicle: water): 136 % of control
survivor count (dose: 200.0 mg/kg/injection, schedule: Q01DX009 (ip), vehicle: other): 2 of 6
survivor count (dose: 200.0 mg/kg/injection, schedule: Q01DX009 (ip), vehicle: water): 4 of 6
survivor count [3]: 1 of 6
survivor count (dose: 400.0 mg/kg/injection, schedule: Q01DX009 (ip), vehicle: water): 0 of 6

Cc1c(O)/c(=C\O)c2nc3c(=O)ccc(C(=O)NCCN(C)C)c3[nH]c2c1=O
T/C (dose: 25.0 mg/kg/injection, schedule: Q01DX005 (ip), vehicle: other): 131 and 135 % of control
survivor count (dose: 30.0 mg/kg/injection, schedule: Q03HX015 (ip), vehicle: water): 6 of 6
T/C (dose: 50.0 mg/kg/injection, schedule: Q01DX005 (ip), vehicle: other): 127 % of control
survivor count (dose: 60.0 mg/kg/injection, schedule: Q03HX015 (ip), vehicle: water): 1 of 6
T/C (dose: 100.0 mg/kg/injection, schedule: Q01DX005 (ip), vehicle: other): 136 % of control

CCCCCCCCCCC[N+]1(CC)CCCCC1
survivor count (dose: 3.12 mg/kg/injection, schedule: Q01DX009 (ip), vehicle: saline): 2 of 6
survivor count (dose: 6.25 mg/kg/injection, schedule: Q01DX009 (ip), vehicle: saline): 1 of 6
survivor count (dose: 12.5 mg/kg/injection, schedule: Q01DX009 (ip), vehicle: saline): 3 of 6
survivor count (dose: 50.0 mg/kg/injection, schedule: Q01DX009 (ip), vehicle: saline): 0 of 6
survivor count (dose: 100.0 mg/kg/injection, schedule: Q01DX009 (ip), vehicle: saline): 0 of 6
survivor count (dose: 200.0 mg/kg/injection, schedule: Q01DX009 (ip), vehicle: saline): 0 of 6

O=c1c(=NO)c(=O)c2ccccc12
survivor count [5]: 1 of 6

O=C(O)CSc1nc(-c2ccccc2)c(-c2ccccc2)n1-c1ccccn1
T/C [4]: 127 % of control

O=Cc1cc2ccc3ccccc3c2[nH]1
survivor count (dose: 100.0 mg/kg/injection, schedule: Q01DX001 (ip), vehicle: saline with Tween-80): 6 of 6
survivor count [5]: 5 of 6

CCCC=C=CCN(C)C
survivor count (dose: 100.0 mg/kg/injection, schedule: Q04DX002 (ip), vehicle: saline): 1 of 6
survivor count (dose: 200.0 mg/kg/injection, schedule: Q04DX002 (ip), vehicle: saline): 0 of 6
survivor count (dose: 400.0 mg/kg/injection, schedule: Q04DX002 (ip), vehicle: saline): 0 of 6

CC(C)(CCC(=O)O)C(=O)O
survivor count (dose: 100.0 mg/kg/injection, schedule: Q01DX009 (ip), vehicle: saline sonified): 6 of 6
